{"source": "PubChem BioAssay AID1259254 – NCATS | 2017", "assay": "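Gene knock-downs that lead to re-replication, shown by excess G2 DNA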 (primary screen)", "cell system": "human HCT116 colorectal cancer cells", "reagent": "single siRNA against human genes", "time to read-out": "3 days", "read-out": "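Imaged Hoechst DNA stain sorts each cell into a cycle phase by DNA amount; per plate, G2 fraction set to 0% for non-targeting and 100% for GMNN siRNA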", "reading the numbers": "G2 robust z-score and G2 cells, % of GMNN control: higher = more G2 cells, more excess DNA replication", "call rule": "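Active siRNAs have a G2 robust z of 5 or more median absolute deviations over the median, which in these data means about 38% or higher of GMNN control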", "note": "The deposit covers about 59,000 reagents; this is an unselected part. Over the whole deposit, about 1,550 (2.6%) were called active. 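G2 share is only a proxy for re-replication; each gene was hit by three separate siRNAs, and active genes were retested.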 A number with no mark means an inactive call. Further read-outs or replicates are left out here. Not stated in the record: the amount of reagent."}
{"Target gene": "KIR3DL3", "PubChem SID": "SID160755235", "G2 robust z-score": 1.51, "G2 cells, % of GMNN control": 13.6}
{"Target gene": "KIR3DL3", "PubChem SID": "SID160755237", "G2 robust z-score": 0.179, "G2 cells, % of GMNN control": 4.22}
{"Target gene": "KIR3DL3", "PubChem SID": "SID160755238", "G2 robust z-score": 1.96, "G2 cells, % of GMNN control": 16.8}
{"Target gene": "ZNF655", "PubChem SID": "SID160724538", "G2 robust z-score": -1.09, "G2 cells, % of GMNN control": -4.69}
{"Target gene": "ZNF655", "PubChem SID": "SID160724539", "G2 robust z-score": -0.00466, "G2 cells, % of GMNN control": 2.93}
{"Target gene": "ZNF655", "PubChem SID": "SID160731905", "G2 robust z-score": "5.53 (active)", "G2 cells, % of GMNN control": 41.9}
{"Target gene": "RUNX2", "PubChem SID": "SID160737043", "G2 robust z-score": 1.67, "G2 cells, % of GMNN control": 14.7}
{"Target gene": "RUNX2", "PubChem SID": "SID160737054", "G2 robust z-score": -1.02, "G2 cells, % of GMNN control": -4.22}
{"Target gene": "RUNX2", "PubChem SID": "SID160737065", "G2 robust z-score": 0.618, "G2 cells, % of GMNN control": 7.32}
{"Target gene": "CIMIP2B", "PubChem SID": "SID160773521", "G2 robust z-score": 0.968, "G2 cells, % of GMNN control": 9.78}
{"Target gene": "CIMIP2B", "PubChem SID": "SID160773522", "G2 robust z-score": -0.823, "G2 cells, % of GMNN control": -2.82}
{"Target gene": "CIMIP2B", "PubChem SID": "SID160773524", "G2 robust z-score": 0.821, "G2 cells, % of GMNN control": 8.75}

Called active, among the entries above:
{"Target gene": "ZNF655", "PubChem SID": "SID160731905", "G2 robust z-score": "5.53 (active)", "G2 cells, % of GMNN control": 41.9}

The listing continues:
{"Target gene": "TCEAL1", "PubChem SID": "SID160721979", "G2 robust z-score": 0.0173, "G2 cells, % of GMNN control": 3.09}
{"Target gene": "TCEAL1", "PubChem SID": "SID160721980", "G2 robust z-score": 2.3, "G2 cells, % of GMNN control": 19.1}
{"Target gene": "TCEAL1", "PubChem SID": "SID160732163", "G2 robust z-score": 0.67, "G2 cells, % of GMNN control": 7.68}
{"Target gene": "EBF2", "PubChem SID": "SID160747839", "G2 robust z-score": 0.248, "G2 cells, % of GMNN control": 4.71}
{"Target gene": "EBF2", "PubChem SID": "SID160747840", "G2 robust z-score": 1.5, "G2 cells, % of GMNN control": 13.6}
{"Target gene": "EBF2", "PubChem SID": "SID160747841", "G2 robust z-score": -1.39, "G2 cells, % of GMNN control": -6.8}
{"Target gene": "SRD5A1", "PubChem SID": "SID160717317", "G2 robust z-score": -0.489, "G2 cells, % of GMNN control": -0.471}
{"Target gene": "SRD5A1", "PubChem SID": "SID160717318", "G2 robust z-score": 1.5, "G2 cells, % of GMNN control": 13.5}
{"Target gene": "SRD5A1", "PubChem SID": "SID160717319", "G2 robust z-score": 0.601, "G2 cells, % of GMNN control": 7.2}
{"Target gene": "SMPD2", "PubChem SID": "SID160717067", "G2 robust z-score": -0.805, "G2 cells, % of GMNN control": -2.7}
{"Target gene": "SMPD2", "PubChem SID": "SID160717068", "G2 robust z-score": -0.308, "G2 cells, % of GMNN control": 0.8}
{"Target gene": "SMPD2", "PubChem SID": "SID160717069", "G2 robust z-score": "7.29 (active)", "G2 cells, % of GMNN control": 54.2}
{"Target gene": "C5orf63", "PubChem SID": "SID160767191", "G2 robust z-score": 1.87, "G2 cells, % of GMNN control": 16.1}
{"Target gene": "C5orf63", "PubChem SID": "SID160767193", "G2 robust z-score": 1.11, "G2 cells, % of GMNN control": 10.8}
{"Target gene": "C5orf63", "PubChem SID": "SID160767194", "G2 robust z-score": 0.698, "G2 cells, % of GMNN control": 7.88}
{"Target gene": "KRTAP3-1", "PubChem SID": "SID160751522", "G2 robust z-score": 0.718, "G2 cells, % of GMNN control": 8.02}
{"Target gene": "KRTAP3-1", "PubChem SID": "SID160751523", "G2 robust z-score": -0.708, "G2 cells, % of GMNN control": -2.02}
{"Target gene": "KRTAP3-1", "PubChem SID": "SID160751524", "G2 robust z-score": 0.152, "G2 cells, % of GMNN control": 4.04}
